Patent US20250135012A1, “DENDRIMER CONJUGATES OF SMALL MOLECULE BIOLOGICS FOR INTRACELLULAR DELIVERY” (The Johns Hopkins University, priority 2021, published 2025)
Some results were stated once for a whole list of compounds, not compound by compound. Non-standard residues stand in square brackets, D forms with d. Residues, ends and D or L forms follow the SMILES beside them. Cya = N[C@@H](CS(=O)(=O)O)C(=O)O

Tested on: CNV area
Test: Biodistribution after systemic administration, laser CNV model
Format: in vivo, Brown Norway rats
Description: For biodistribution studies, a dose of Cy5-D-ALG1001-Cy3 and ALG-1001-Cy3 at 150 μg/100 μL was administered to each animal intraperitoneally on the day of CNV induction (Day 0). Animals were sacrificed at 1-, 2-, 3-, and 4-day time points and enucleated.
After fixation, the posterior segment of the eye was dissected out and the retina separated from the choroid. Tissues stained with FITC-labeled isolectin (GS IB4) (Life Technologies, Eugene, OR) for blood vessels and monocytes. Eyes were mounted by introducing four radial relaxation cuts. Samples for biodistribution were imaged under a confocal 710 microscope (Carl Zeiss, Oberkochen, Germany). Samples for CNV quantification were imaged with an Axiovert phase contrast microscope. All images were processed with ImageJ.
Fluorescently labeled Cy3-ALG-1001 peptide and dual labeled Cy5-dendrimer-ALG-Cy3 were systemically injected on day 0 (same day as CNV induction) and choroidal tissues were collected at set time points. Confocal microscopy was used to monitor the presence of ALG-1001 peptide (Cy3), dendrimer carrier (Cy5), CNV formation (Isolectin), and macrophages (Iba1). […] In comparison, D-ALG was able to not only reach the CNV area within 24 h after systemic injection but also remain in the target area up to 4 days post administration from the co-localized presence of both Cy5 and Cy3 signals.

C[C@@H](O)[C@H](NC(=O)[C@H](CS(=O)(=O)O)NC(=O)CNC(=O)[C@H](CCCNC(=N)N)NC(=O)CN)C(=O)N1CCC[C@H]1C(=O)O [ALG-1001] (H-GRG[Cya]TP-OH; N-terminus and C-terminus assumed)
time to reach the CNV area: ≤ 24 h
